We go through 21 compounds from the supplement of paper PMC11546906.

Structures can show the parent of a compound that is named as a salt. This is one part of the list. Repeats in this data set agree poorly, so a single value says little.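 A screen tested FDA-approved drugs combined with one-eighth-MIC colistin against a clinical mcr-1-positive, multidrug-resistant E. coli isolate, measuring OD600 at 24 h. Controls were untreated bacteria (growth) and broth alone (blank). An OD600 under 0.2 marked a combination as active.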

In this assay the test system is Escherichia coli 42 (mcr-1-positive clinical isolate). Briefly: OD600 after 24 h growth with compound plus colistin (absorbance units (OD600)); higher = more bacterial growth (less inhibition). The conditions noted are these: first compound 25 µM; colistin concentration 0.5 ug/mL; incubation time 24 h; 37 °C.
On to `N#CC[C@H](C1CCCC1)n1cc(-c2ncnc3[nH]ccc23)cn1` [Ruxolitinib phosphate] + CCC(C)CCCC(=O)N[C@@H](CCN)C(=O)N[C@H](C(=O)N[C@@H](CCN)C(=O)N[C@H]1CCNC(=O)[C@H]([C@@H](C)O)NC(=O)[C@H](CCN)NC(=O)[C@H](CCN)NC(=O)[C@H](CC(C)C)NC(=O)[C@@H](CC(C)C)NC(=O)[C@H](CCN)NC1=O)[C@@H](C)O [colistin], for which the OD600 is inactive: 1.07.
For the compound `CC(C[N+](C)(C)C)OC(N)=O` (stereo unspecified) [Bethanechol chloride] + CCC(C)CCCC(=O)N[C@@H](CCN)C(=O)N[C@H](C(=O)N[C@@H](CCN)C(=O)N[C@H]1CCNC(=O)[C@H]([C@@H](C)O)NC(=O)[C@H](CCN)NC(=O)[C@H](CCN)NC(=O)[C@H](CC(C)C)NC(=O)[C@@H](CC(C)C)NC(=O)[C@H](CCN)NC1=O)[C@@H](C)O [colistin], the OD600 is inactive: 0.852.
Consider `CC1(C)S[C@@H]2[C@H](NC(=O)[C@H](N)c3ccccc3)C(=O)N2[C@H]1C(=O)O` [Ampicillin] + CCC(C)CCCC(=O)N[C@@H](CCN)C(=O)N[C@H](C(=O)N[C@@H](CCN)C(=O)N[C@H]1CCNC(=O)[C@H]([C@@H](C)O)NC(=O)[C@H](CCN)NC(=O)[C@H](CCN)NC(=O)[C@H](CC(C)C)NC(=O)[C@@H](CC(C)C)NC(=O)[C@H](CCN)NC1=O)[C@@H](C)O [colistin], for which the OD600 is inactive: 1.09.
For the compound `C#C[C@]1(OC(C)=O)CC[C@H]2[C@@H]3CCC4=C[C@@H](OC(C)=O)CC[C@@H]4[C@H]3CC[C@@]21C` [Ethynodiol diacetate] + CCC(C)CCCC(=O)N[C@@H](CCN)C(=O)N[C@H](C(=O)N[C@@H](CCN)C(=O)N[C@H]1CCNC(=O)[C@H]([C@@H](C)O)NC(=O)[C@H](CCN)NC(=O)[C@H](CCN)NC(=O)[C@H](CC(C)C)NC(=O)[C@@H](CC(C)C)NC(=O)[C@H](CCN)NC1=O)[C@@H](C)O [colistin], the OD600 is inactive: 0.906.
As for `Clc1ccc(CCC(Cn2ccnc2)Sc2c(Cl)cccc2Cl)cc1` (stereo unspecified) [Butoconazole nitrate] + CCC(C)CCCC(=O)N[C@@H](CCN)C(=O)N[C@H](C(=O)N[C@@H](CCN)C(=O)N[C@H]1CCNC(=O)[C@H]([C@@H](C)O)NC(=O)[C@H](CCN)NC(=O)[C@H](CCN)NC(=O)[C@H](CC(C)C)NC(=O)[C@@H](CC(C)C)NC(=O)[C@H](CCN)NC1=O)[C@@H](C)O [colistin], the OD600 is active: 0.051.
With `CCC(=O)OCC(=O)[C@@]1(OC(=O)CC)[C@@H](C)C[C@H]2[C@@H]3CCC4=CC(=O)C=C[C@]4(C)[C@@]3(Cl)[C@@H](O)C[C@@]21C` [Beclometasone dipropionate] + CCC(C)CCCC(=O)N[C@@H](CCN)C(=O)N[C@H](C(=O)N[C@@H](CCN)C(=O)N[C@H]1CCNC(=O)[C@H]([C@@H](C)O)NC(=O)[C@H](CCN)NC(=O)[C@H](CCN)NC(=O)[C@H](CC(C)C)NC(=O)[C@@H](CC(C)C)NC(=O)[C@H](CCN)NC1=O)[C@@H](C)O [colistin], the OD600 is inactive: 1.11.
As for `CC(C)[C@H](N)C(=O)OCCOCn1cnc2c(=O)nc(N)[nH]c21` [Valacyclovir hydrochloride] + CCC(C)CCCC(=O)N[C@@H](CCN)C(=O)N[C@H](C(=O)N[C@@H](CCN)C(=O)N[C@H]1CCNC(=O)[C@H]([C@@H](C)O)NC(=O)[C@H](CCN)NC(=O)[C@H](CCN)NC(=O)[C@H](CC(C)C)NC(=O)[C@@H](CC(C)C)NC(=O)[C@H](CCN)NC1=O)[C@@H](C)O [colistin], the OD600 is inactive: 1.08.
With `COc1cccc2c1C(=O)c1c(O)c3c(c(O)c1C2=O)C[C@@](O)(C(C)=O)C[C@@H]3O[C@H]1C[C@H](N)[C@H](O)[C@H](C)O1` [Daunorubicin hydrochloride] + CCC(C)CCCC(=O)N[C@@H](CCN)C(=O)N[C@H](C(=O)N[C@@H](CCN)C(=O)N[C@H]1CCNC(=O)[C@H]([C@@H](C)O)NC(=O)[C@H](CCN)NC(=O)[C@H](CCN)NC(=O)[C@H](CC(C)C)NC(=O)[C@@H](CC(C)C)NC(=O)[C@H](CCN)NC1=O)[C@@H](C)O [colistin] the figure was active: 0.045.
Consider `COc1cc2/c(=N/c3ccc(Br)cc3F)nc[nH]c2cc1OCC1CCN(C)CC1` [Vandetanib] + CCC(C)CCCC(=O)N[C@@H](CCN)C(=O)N[C@H](C(=O)N[C@@H](CCN)C(=O)N[C@H]1CCNC(=O)[C@H]([C@@H](C)O)NC(=O)[C@H](CCN)NC(=O)[C@H](CCN)NC(=O)[C@H](CC(C)C)NC(=O)[C@@H](CC(C)C)NC(=O)[C@H](CCN)NC1=O)[C@@H](C)O [colistin], for which the OD600 was inactive: 1.08.
Under `O=C(c1ccc(OCCN2CCCCC2)cc1)c1c(-c2ccc(O)cc2)sc2cc(O)ccc12` [Raloxifene hydrochloride] + CCC(C)CCCC(=O)N[C@@H](CCN)C(=O)N[C@H](C(=O)N[C@@H](CCN)C(=O)N[C@H]1CCNC(=O)[C@H]([C@@H](C)O)NC(=O)[C@H](CCN)NC(=O)[C@H](CCN)NC(=O)[C@H](CC(C)C)NC(=O)[C@@H](CC(C)C)NC(=O)[C@H](CCN)NC1=O)[C@@H](C)O [colistin] stands inactive: 0.879; under `CCN(CC)CC#CCOC(=O)C(O)(c1ccccc1)C1CCCCC1` (stereo unspecified) [Oxybutynin] + CCC(C)CCCC(=O)N[C@@H](CCN)C(=O)N[C@H](C(=O)N[C@@H](CCN)C(=O)N[C@H]1CCNC(=O)[C@H]([C@@H](C)O)NC(=O)[C@H](CCN)NC(=O)[C@H](CCN)NC(=O)[C@H](CC(C)C)NC(=O)[C@@H](CC(C)C)NC(=O)[C@H](CCN)NC1=O)[C@@H](C)O [colistin], inactive: 1.04; under `CC(C)(CO)C(O)C(=O)NCCCO` (racemic) [DL-Panthenol] + CCC(C)CCCC(=O)N[C@@H](CCN)C(=O)N[C@H](C(=O)N[C@@H](CCN)C(=O)N[C@H]1CCNC(=O)[C@H]([C@@H](C)O)NC(=O)[C@H](CCN)NC(=O)[C@H](CCN)NC(=O)[C@H](CC(C)C)NC(=O)[C@@H](CC(C)C)NC(=O)[C@H](CCN)NC1=O)[C@@H](C)O [colistin], inactive: 0.929.
As to `CC(C)(CO)[C@@H](O)C(=O)NCCCO` [D-Panthenol] + CCC(C)CCCC(=O)N[C@@H](CCN)C(=O)N[C@H](C(=O)N[C@@H](CCN)C(=O)N[C@H]1CCNC(=O)[C@H]([C@@H](C)O)NC(=O)[C@H](CCN)NC(=O)[C@H](CCN)NC(=O)[C@H](CC(C)C)NC(=O)[C@@H](CC(C)C)NC(=O)[C@H](CCN)NC1=O)[C@@H](C)O [colistin], the OD600 was inactive: 1.1.
For `CC1(C)S[C@@H]2[C@H](NC(=O)COc3ccccc3)C(=O)N2[C@H]1C(=O)O` [Penicillin V Potassium] + CCC(C)CCCC(=O)N[C@@H](CCN)C(=O)N[C@H](C(=O)N[C@@H](CCN)C(=O)N[C@H]1CCNC(=O)[C@H]([C@@H](C)O)NC(=O)[C@H](CCN)NC(=O)[C@H](CCN)NC(=O)[C@H](CC(C)C)NC(=O)[C@@H](CC(C)C)NC(=O)[C@H](CCN)NC1=O)[C@@H](C)O [colistin], the OD600 is inactive: 1.1.
With `CNC(=O)c1cc(Oc2ccc(NC(=O)Nc3ccc(Cl)c(C(F)(F)F)c3)cc2)ccn1` [Sorafenib tosylate] + CCC(C)CCCC(=O)N[C@@H](CCN)C(=O)N[C@H](C(=O)N[C@@H](CCN)C(=O)N[C@H]1CCNC(=O)[C@H]([C@@H](C)O)NC(=O)[C@H](CCN)NC(=O)[C@H](CCN)NC(=O)[C@H](CC(C)C)NC(=O)[C@@H](CC(C)C)NC(=O)[C@H](CCN)NC1=O)[C@@H](C)O [colistin] the figure was active: 0.045; with `CCS(=O)(=O)N1CC(CC#N)(n2cc(-c3ncnc4[nH]ccc34)cn2)C1` [Baricitinib phosphate] + CCC(C)CCCC(=O)N[C@@H](CCN)C(=O)N[C@H](C(=O)N[C@@H](CCN)C(=O)N[C@H]1CCNC(=O)[C@H]([C@@H](C)O)NC(=O)[C@H](CCN)NC(=O)[C@H](CCN)NC(=O)[C@H](CC(C)C)NC(=O)[C@@H](CC(C)C)NC(=O)[C@H](CCN)NC1=O)[C@@H](C)O [colistin], inactive: 1.05; with `OC[C@@H](O)[C@@H](O)[C@H](O)[C@H](O)CO` [D-Mannitol] + CCC(C)CCCC(=O)N[C@@H](CCN)C(=O)N[C@H](C(=O)N[C@@H](CCN)C(=O)N[C@H]1CCNC(=O)[C@H]([C@@H](C)O)NC(=O)[C@H](CCN)NC(=O)[C@H](CCN)NC(=O)[C@H](CC(C)C)NC(=O)[C@@H](CC(C)C)NC(=O)[C@H](CCN)NC1=O)[C@@H](C)O [colistin], inactive: 0.805.
For `NCC(=O)CCC(=O)O` [5-Aminolevulinic acid hydrochloride] + CCC(C)CCCC(=O)N[C@@H](CCN)C(=O)N[C@H](C(=O)N[C@@H](CCN)C(=O)N[C@H]1CCNC(=O)[C@H]([C@@H](C)O)NC(=O)[C@H](CCN)NC(=O)[C@H](CCN)NC(=O)[C@H](CC(C)C)NC(=O)[C@@H](CC(C)C)NC(=O)[C@H](CCN)NC1=O)[C@@H](C)O [colistin], the OD600 was inactive: 1.08.
`CN(C)CCC=C1c2ccccc2C=Cc2ccccc21` [Cyclobenzaprine hydrochloride] + CCC(C)CCCC(=O)N[C@@H](CCN)C(=O)N[C@H](C(=O)N[C@@H](CCN)C(=O)N[C@H]1CCNC(=O)[C@H]([C@@H](C)O)NC(=O)[C@H](CCN)NC(=O)[C@H](CCN)NC(=O)[C@H](CC(C)C)NC(=O)[C@@H](CC(C)C)NC(=O)[C@H](CCN)NC1=O)[C@@H](C)O [colistin]: the OD600 is inactive: 0.793.
In the case of `CC(C)(O/N=C(\C(=O)N[C@@H]1C(=O)N2C(C(=O)[O-])=C(C[n+]3ccccc3)CS[C@H]12)c1csc(N)n1)C(=O)O` [Ceftazidime] + CCC(C)CCCC(=O)N[C@@H](CCN)C(=O)N[C@H](C(=O)N[C@@H](CCN)C(=O)N[C@H]1CCNC(=O)[C@H]([C@@H](C)O)NC(=O)[C@H](CCN)NC(=O)[C@H](CCN)NC(=O)[C@H](CC(C)C)NC(=O)[C@@H](CC(C)C)NC(=O)[C@H](CCN)NC1=O)[C@@H](C)O [colistin], the OD600 was inactive: 0.86.
Consider `CC1(C)C[C@@H]1C(=O)N/C(=C\CCCCSC[C@H](N)C(=O)O)C(=O)O` [Cilastatin] + CCC(C)CCCC(=O)N[C@@H](CCN)C(=O)N[C@H](C(=O)N[C@@H](CCN)C(=O)N[C@H]1CCNC(=O)[C@H]([C@@H](C)O)NC(=O)[C@H](CCN)NC(=O)[C@H](CCN)NC(=O)[C@H](CC(C)C)NC(=O)[C@@H](CC(C)C)NC(=O)[C@H](CCN)NC1=O)[C@@H](C)O [colistin], for which the OD600 is inactive: 0.782.
